From article doi:10.1101/2025.11.24.690153
Construct, isoform or probe ends are uncertain for at least one entry. At least one result comes from cells or an extract, where the contact may be indirect. For part of these data: Protein sequences can lack the tags named with them.

Assays:
Assay in all cases: pull-down
[1] = target: ComEA (Bacillus subtilis PY79 delta-rok) (UniProt P39694); settings: protein in an extract; label: biotin on strand 1
[2] = target: T1, ComGC (lysate) (Bacillus subtilis PY79 delta-rok) (UniProt P25955); settings: protein in an extract
T1 sequence (looked up, limits assumed): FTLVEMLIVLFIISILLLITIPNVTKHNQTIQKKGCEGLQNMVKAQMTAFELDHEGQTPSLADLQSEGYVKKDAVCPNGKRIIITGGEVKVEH

[3] = target: T2, RecA (Bacillus subtilis PY79 delta-rok) (UniProt P16971); settings: protein in an extract
T2 sequence (looked up, limits assumed): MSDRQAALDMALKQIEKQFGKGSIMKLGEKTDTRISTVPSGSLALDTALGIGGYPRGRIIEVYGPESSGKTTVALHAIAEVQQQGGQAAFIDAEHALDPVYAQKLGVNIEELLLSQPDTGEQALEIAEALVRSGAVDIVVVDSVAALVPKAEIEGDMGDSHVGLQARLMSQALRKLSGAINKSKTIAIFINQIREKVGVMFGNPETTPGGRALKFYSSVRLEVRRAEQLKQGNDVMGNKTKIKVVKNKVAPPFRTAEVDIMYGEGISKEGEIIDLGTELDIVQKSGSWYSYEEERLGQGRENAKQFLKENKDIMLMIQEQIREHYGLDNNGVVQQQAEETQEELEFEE

[4] = target: T3, ComGF (Bacillus subtilis PY79 delta-rok) (UniProt P25958); settings: protein in an extract
T3 sequence (looked up, limits assumed): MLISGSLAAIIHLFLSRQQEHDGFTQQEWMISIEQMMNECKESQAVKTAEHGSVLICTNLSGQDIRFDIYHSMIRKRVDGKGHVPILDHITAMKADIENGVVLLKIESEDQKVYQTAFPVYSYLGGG

[5] = target: T4, YhaM (Bacillus subtilis PY79 delta-rok) (UniProt O07521); settings: protein in an extract
T4 sequence (looked up, limits assumed): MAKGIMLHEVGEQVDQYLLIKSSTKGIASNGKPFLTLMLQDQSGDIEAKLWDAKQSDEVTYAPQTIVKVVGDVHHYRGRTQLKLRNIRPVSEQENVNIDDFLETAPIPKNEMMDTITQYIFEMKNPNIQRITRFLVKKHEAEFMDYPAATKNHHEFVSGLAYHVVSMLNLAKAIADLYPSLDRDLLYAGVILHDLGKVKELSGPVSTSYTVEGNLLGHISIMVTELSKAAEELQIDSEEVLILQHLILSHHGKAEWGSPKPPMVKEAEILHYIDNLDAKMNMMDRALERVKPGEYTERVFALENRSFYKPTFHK

[6] = target: T5, DprA (Bacillus subtilis PY79 delta-rok) (UniProt P39813); settings: protein in an extract
T5 sequence (looked up, limits assumed): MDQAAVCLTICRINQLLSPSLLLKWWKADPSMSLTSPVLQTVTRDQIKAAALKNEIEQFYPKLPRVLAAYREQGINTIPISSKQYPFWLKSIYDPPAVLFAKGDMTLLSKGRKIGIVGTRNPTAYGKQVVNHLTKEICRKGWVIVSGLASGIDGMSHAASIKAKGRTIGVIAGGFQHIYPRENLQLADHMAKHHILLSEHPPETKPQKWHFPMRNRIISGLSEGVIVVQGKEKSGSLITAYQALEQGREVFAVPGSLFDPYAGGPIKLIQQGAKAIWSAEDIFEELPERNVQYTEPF

[7] = target: T6, SsbB (Bacillus subtilis PY79 delta-rok) (UniProt C0SPB6); settings: protein in an extract
T6 sequence (looked up, limits assumed): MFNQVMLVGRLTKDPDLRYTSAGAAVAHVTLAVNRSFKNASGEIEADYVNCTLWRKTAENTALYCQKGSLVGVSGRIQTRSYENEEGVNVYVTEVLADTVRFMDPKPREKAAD

[8] = target: T7, SsbA (Bacillus subtilis PY79 delta-rok) (UniProt P37455); settings: protein in an extract
T7 sequence (looked up, limits assumed): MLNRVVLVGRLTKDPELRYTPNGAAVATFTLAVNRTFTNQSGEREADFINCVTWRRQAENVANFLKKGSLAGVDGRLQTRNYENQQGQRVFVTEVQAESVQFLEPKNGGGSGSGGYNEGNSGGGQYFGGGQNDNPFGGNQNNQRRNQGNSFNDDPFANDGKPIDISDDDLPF

Measured: binding result

TCACAGTGAAAGTTAGTGTGAACTTGCCCCATTTATTGTA (double strand) [pulldown 40 bp dsDNA]
binds: [1] | [2]; label: biotin on strand 1

TCACAGTGAAAGTTAGTGTGAACTTGCCCCATTTATTGTA [pulldown 40 nt ssDNA]
binds: [3] | [4] | [5] | [6] | [7] | [2] | [8]
